Reference: paper PMC7561375
These are yes or no findings as the source states them, for the method shown. In cells and extracts the contact can be indirect. Some binding calls cover weakened binding; strength is not graded here.

Protein sequences, listed by entry. Tags and fused reporters are not part of them.
UniProt P18009: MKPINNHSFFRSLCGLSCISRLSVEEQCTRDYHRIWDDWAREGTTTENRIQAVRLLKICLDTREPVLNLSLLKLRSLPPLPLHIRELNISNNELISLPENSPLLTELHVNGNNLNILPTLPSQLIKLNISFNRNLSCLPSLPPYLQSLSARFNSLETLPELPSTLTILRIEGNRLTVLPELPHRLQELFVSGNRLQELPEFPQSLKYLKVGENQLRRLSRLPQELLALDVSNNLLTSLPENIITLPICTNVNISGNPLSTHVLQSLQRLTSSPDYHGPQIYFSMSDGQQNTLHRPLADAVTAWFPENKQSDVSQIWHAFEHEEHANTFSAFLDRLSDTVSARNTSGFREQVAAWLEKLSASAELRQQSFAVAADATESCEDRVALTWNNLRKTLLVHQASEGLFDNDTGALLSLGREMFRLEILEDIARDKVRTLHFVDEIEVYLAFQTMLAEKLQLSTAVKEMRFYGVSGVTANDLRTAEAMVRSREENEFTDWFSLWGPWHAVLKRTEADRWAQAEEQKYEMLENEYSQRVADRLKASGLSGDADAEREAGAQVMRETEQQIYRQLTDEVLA
UniProt Q96P20: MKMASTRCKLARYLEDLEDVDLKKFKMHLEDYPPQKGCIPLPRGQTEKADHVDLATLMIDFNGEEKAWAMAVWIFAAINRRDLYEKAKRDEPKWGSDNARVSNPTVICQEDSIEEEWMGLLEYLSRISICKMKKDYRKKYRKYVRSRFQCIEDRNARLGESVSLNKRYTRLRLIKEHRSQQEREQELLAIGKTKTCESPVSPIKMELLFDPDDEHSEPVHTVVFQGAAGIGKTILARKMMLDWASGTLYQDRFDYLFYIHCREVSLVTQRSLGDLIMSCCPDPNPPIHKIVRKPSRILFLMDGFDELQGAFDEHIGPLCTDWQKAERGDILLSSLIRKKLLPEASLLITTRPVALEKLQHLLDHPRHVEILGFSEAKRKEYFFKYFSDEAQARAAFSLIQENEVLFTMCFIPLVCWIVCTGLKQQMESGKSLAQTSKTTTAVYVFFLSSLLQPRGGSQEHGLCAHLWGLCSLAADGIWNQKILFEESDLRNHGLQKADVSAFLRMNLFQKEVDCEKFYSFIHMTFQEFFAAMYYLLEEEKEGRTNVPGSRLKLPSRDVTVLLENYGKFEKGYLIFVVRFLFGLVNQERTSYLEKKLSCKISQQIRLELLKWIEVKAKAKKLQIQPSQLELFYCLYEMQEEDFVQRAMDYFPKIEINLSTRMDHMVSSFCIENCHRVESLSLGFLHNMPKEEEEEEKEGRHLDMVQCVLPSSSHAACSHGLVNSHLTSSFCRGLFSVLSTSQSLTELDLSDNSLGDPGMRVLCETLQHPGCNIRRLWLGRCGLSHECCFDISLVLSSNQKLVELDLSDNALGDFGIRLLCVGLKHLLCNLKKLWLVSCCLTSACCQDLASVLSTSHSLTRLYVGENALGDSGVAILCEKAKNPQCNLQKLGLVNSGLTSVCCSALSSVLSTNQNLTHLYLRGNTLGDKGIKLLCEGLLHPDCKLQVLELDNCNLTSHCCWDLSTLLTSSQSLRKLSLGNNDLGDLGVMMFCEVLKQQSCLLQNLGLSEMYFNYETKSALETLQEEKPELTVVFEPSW
UniProt Q8VSC3: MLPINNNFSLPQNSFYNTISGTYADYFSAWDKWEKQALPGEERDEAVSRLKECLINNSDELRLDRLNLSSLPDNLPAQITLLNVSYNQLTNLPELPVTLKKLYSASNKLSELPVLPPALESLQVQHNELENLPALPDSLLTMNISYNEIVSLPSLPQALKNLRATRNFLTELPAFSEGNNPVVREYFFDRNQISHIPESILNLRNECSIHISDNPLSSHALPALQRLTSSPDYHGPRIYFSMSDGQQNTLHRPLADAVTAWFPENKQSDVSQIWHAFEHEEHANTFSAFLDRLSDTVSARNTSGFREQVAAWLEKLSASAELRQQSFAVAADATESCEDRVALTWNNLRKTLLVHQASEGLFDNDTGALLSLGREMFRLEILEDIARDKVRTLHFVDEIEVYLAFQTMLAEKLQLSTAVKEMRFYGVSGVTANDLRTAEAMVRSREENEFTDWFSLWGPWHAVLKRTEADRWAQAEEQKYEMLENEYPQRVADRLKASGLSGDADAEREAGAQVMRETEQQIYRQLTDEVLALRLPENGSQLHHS
UniProt Q8R4B8: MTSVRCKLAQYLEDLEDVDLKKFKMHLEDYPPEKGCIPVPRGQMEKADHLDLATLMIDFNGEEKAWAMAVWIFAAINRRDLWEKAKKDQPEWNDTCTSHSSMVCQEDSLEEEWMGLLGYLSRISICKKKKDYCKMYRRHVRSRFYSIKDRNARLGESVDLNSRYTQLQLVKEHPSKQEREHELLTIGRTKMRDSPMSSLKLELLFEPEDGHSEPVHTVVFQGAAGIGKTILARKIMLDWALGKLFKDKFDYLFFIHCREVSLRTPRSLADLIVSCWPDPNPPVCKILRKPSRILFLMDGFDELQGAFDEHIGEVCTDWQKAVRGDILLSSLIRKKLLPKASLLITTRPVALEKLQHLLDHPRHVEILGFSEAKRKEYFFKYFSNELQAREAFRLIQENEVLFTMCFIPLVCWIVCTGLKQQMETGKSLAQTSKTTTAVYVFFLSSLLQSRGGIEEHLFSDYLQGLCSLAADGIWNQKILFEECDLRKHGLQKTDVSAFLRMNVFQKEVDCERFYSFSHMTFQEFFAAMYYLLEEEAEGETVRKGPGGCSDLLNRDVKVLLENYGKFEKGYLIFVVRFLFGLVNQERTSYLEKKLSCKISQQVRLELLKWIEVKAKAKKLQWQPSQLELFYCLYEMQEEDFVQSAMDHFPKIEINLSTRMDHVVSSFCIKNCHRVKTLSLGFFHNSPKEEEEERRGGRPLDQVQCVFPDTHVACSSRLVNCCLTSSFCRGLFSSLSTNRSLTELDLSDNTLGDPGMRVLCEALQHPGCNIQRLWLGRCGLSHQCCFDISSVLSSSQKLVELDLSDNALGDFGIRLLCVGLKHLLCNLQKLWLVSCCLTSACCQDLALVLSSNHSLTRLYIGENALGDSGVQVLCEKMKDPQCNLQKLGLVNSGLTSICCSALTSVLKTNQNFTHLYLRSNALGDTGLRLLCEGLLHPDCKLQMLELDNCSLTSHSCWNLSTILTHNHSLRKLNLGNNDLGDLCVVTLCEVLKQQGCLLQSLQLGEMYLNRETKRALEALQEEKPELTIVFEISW

Tests used:
[1] = target: GST-tagged IpaH4.5 (Shigella flexneri 2a 301) (UniProt P18009); assay: pull-down; purified GST-IpaH4.5 on glutathione beads; lysate of HEK293 cells expressing Flag-NLRP3; three washes; blot with anti-Flag; only the target purified
Flag-tagged NLRP3 = Flag-tagged NLRP3 (UniProt Q96P20); assay: co-IP; HEK293 cells cotransfected with Flag-NLRP3 and a Myc-tagged IpaH protein; anti-Flag M2 affinity gel, 2 h at 4°C; washed with 50 mM Tris-HCl pH 7.5, 1 mM EDTA, 0.3 mM dithiothreitol, 150 mM NaCl, 0.1% NP40; blot with anti-Myc
[2] = target: Flag-tagged IpaH4.5 (Shigella flexneri 2a 301) (UniProt P18009); assay: co-IP; RAW264.7 cells transfected with Flag-IpaH4.5; anti-Flag M2 affinity gel, 2 h at 4°C; blot with anti-NLRP3 for the endogenous protein

Substance	binding (Flag-tagged NLRP3)	also measured
Flag-tagged NLRP3 (from UniProt Q96P20 1-1036)	–	binding [1]: binds
Myc-tagged IpaH9.8 (from UniProt Q8VSC3 1-545)	no binding	–
Myc-tagged IpaH4.5 (from UniProt P18009 1-574)	binds	–
endogenous NLRP3 (from UniProt Q8R4B8 1-1033)	–	binding [2]: binds
